Assay results published in patent US20240277693A1, “A PHARMACEUTICAL PRODUCT CONTAINING TASQUINIMOD AND A METHOD FOR ASSESSING THE PURITY OF SAID PRODUCT” (ACTIVE BIOTECH AB, priority 2021, published 2024).
Some of these results come from one statement about several compounds together.

Assay: Stability testing of capsules at 25° C./60% RH in water impermeable blister pack
Type: physicochemical
From the text: In some embodiments, the method disclosed herein comprises storing (keeping) a sample of the pharmaceutical product for a period of time, preferably under selected conditions of temperature and humidity. The amount (or concentration) of tasquinimod and of at least one of compounds I, II, III and IV in the sample may preferably be determined at the beginning or before the storage period and at the end of the storage period. The selected storage conditions may include a temperature in the range of, for example, 20° C. to 40° C., and a relative humidity in the surrounding atmosphere in the range of, for example, 30% to 75%; e.g. 25° C. and 60% RH, or 30° C. and 65% RH, or 35° C. and 70% RH, or 40° C. and 75% RH. The storage period may extend over a time period in the range of, for example, several weeks to several years. For example, the stability testing period (“storage period”) may be 2 weeks, 3 weeks, 1 month, 2 months, 3 months, 4 months, 5 months, 6 months, 9 months, 1 year, 18 months, 2 years, 3 years, 4 years or even 5 years or longer. A shorter storage period may be selected by use of higher storage temperature and/or higher relative humidity (RH). The total amount of a tasquinimod decomposition product in the sample at the end of the storage period may be determined by, for example, HPLC.
The batch of capsules manufactured in Example 19 was assessed by determining the amount of tasquinimod and the amount of each one of compounds I, II, III and IV in a sample of the capsules at the end of a 3-month stability testing, whereby the criterion for approving the batch was that the capsules of the sample, at the end of the 3-month stability testing, contain a total amount of compounds I-IV of not more than 5.0% w/w, relative to the amount of tasquinimod in the capsules. The stability testing consisted of keeping the capsules, in a water impermeable blister pack, at 25° C./60% RH. At the end of the stability testing, the capsules contained 0.06% w/w of compound I, less than 0.05% w/w of compound II, 0.10% of compound III and less than 0.05% w/w of compound IV, relative to the amount of tasquinimod (determined to be 0.246 mg/capsule), viz. in total less than 0.26% w/w of compounds I-IV relative to the amount of tasquinimod. Therefore, according to the selected criterion for approval, the batch of capsules was determined to be suitable for distribution.
The obtained batch of capsules was subjected to multiple assessments, viz. a first assessment comprising determining the amount of tasquinimod and the amount of compounds I, II, III and IV in a sample of the capsules directly after manufacturing, whereby the selected criterion for approving the batch for distribution was that the capsules of the sample, in a water impermeable blister pack, contain not more than in total 5% w/w of compounds I-IV relative to the amount of tasquinimod, followed by eight further, independent assessments, by determining the amount of tasquinimod and the amount of each one of compounds I, II, III and IV in a sample of the capsules at the end of a period of stability testing (by keeping the capsules, in a water impermeable blister pack, at 25° C./60% RH) of 3, 6, 9, 12, 18, 24, 36 and 48 months, respectively, whereby each time the criterion for approving the batch was that the capsules of the sample, at the end of each period of stability testing, contain a total amount of compounds I-IV of not more than 5.0% w/w, relative to the amount of tasquinimod in the capsules.

[1] = 0.25 mg capsules of Example 19, 3 months
[2] = 0.25 mg capsules of Example 19, 6 months
[3] = 0.25 mg capsules of Example 19, 9 months
[4] = 0.25 mg capsules of Example 19, 12 months

Measured: amount of decomposition product (each of compounds I-IV) in capsules, relative to the amount of tasquinimod

COc1cccc2c1c(O)c(Cc1c(O)c3c(OC)cccc3n(C)c1=O)c(=O)n2C [Compound IV, 3,3′-methylenebis(4-hydroxy-5-methoxy-1-methylquinolin-2(1H)-one)]
less than 0.05 % w/w: [1] | [2] | [3] | [4]

COc1cccc2c1c(O)c(C(=O)O)c(=O)n2C [Compound II, 4-hydroxy-5-methoxy-1-methyl-2-oxo-1,2-dihydroquinoline-3-carboxylic acid]
less than 0.05 % w/w: [1] | [2] | [3] | [4]
